The supplement of paper PMC12067093, “Discovery and optimisation of a covalent ligand for TRIM25 and its application to targeted protein ubiquitination” (Chemical Science, 2025)
The other results are listed elsewhere or left out.

Sequences of proteins named here, by UniProt entry; tags and fusion partners are left off. A change or cut given only in a name is not applied to a line headed by its entry.
UniProt P19623: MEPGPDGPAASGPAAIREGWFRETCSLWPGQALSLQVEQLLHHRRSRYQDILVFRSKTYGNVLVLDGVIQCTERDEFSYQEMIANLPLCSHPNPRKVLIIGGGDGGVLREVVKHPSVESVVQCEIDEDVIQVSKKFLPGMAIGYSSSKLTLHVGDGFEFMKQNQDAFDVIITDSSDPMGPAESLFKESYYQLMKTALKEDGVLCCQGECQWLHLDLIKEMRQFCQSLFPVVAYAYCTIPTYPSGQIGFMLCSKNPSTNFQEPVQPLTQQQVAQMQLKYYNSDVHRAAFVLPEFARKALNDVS
UniProt P57768: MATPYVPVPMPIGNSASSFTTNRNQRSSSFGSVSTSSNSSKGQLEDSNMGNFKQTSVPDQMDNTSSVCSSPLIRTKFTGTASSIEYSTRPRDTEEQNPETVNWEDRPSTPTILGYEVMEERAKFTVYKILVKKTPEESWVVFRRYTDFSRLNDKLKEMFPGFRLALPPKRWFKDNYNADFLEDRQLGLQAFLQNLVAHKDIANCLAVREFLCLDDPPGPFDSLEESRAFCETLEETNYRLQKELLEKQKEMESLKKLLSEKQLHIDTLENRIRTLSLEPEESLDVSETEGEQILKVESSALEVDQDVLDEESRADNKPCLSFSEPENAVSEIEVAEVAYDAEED
UniProt O94964: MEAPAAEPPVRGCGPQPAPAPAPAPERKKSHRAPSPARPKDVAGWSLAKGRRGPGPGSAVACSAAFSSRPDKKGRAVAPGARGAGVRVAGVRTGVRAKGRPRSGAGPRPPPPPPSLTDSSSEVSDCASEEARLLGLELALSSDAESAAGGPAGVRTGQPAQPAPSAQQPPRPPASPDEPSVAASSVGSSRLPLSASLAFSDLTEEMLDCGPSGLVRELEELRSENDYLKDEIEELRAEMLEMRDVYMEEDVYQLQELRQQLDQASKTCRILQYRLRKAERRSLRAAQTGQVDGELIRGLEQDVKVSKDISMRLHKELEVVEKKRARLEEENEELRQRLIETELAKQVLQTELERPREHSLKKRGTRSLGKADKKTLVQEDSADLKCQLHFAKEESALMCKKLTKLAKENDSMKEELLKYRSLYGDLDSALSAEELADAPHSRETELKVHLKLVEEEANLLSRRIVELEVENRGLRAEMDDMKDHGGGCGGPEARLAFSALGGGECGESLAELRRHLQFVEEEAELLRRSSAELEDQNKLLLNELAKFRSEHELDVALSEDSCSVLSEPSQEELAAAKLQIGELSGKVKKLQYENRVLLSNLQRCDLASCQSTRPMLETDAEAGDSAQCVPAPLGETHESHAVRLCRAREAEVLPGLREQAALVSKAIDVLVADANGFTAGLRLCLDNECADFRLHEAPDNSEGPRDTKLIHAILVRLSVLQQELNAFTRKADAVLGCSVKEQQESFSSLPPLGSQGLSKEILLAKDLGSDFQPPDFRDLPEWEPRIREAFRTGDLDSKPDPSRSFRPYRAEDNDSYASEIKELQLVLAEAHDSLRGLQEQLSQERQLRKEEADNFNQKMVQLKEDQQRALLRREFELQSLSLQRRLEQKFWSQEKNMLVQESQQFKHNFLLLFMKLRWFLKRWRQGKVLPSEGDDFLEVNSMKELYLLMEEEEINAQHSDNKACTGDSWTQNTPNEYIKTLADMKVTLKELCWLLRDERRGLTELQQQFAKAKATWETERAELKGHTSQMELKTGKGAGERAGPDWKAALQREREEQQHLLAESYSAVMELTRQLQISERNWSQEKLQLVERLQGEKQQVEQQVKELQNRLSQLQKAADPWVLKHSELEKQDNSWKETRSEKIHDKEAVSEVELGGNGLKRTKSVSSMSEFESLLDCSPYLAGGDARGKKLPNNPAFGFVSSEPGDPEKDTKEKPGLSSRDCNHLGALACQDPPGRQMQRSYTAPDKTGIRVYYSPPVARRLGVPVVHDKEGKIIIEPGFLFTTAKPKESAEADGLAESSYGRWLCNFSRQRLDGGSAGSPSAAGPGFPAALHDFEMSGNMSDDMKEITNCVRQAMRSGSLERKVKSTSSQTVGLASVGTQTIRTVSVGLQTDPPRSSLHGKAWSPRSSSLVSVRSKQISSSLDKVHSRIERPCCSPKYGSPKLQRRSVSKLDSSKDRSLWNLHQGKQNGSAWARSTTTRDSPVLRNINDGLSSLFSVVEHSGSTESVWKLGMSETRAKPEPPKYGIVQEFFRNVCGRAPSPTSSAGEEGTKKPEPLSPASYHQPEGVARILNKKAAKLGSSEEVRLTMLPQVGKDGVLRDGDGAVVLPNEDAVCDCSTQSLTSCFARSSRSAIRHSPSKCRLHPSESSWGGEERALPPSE
UniProt Q9Y6N5: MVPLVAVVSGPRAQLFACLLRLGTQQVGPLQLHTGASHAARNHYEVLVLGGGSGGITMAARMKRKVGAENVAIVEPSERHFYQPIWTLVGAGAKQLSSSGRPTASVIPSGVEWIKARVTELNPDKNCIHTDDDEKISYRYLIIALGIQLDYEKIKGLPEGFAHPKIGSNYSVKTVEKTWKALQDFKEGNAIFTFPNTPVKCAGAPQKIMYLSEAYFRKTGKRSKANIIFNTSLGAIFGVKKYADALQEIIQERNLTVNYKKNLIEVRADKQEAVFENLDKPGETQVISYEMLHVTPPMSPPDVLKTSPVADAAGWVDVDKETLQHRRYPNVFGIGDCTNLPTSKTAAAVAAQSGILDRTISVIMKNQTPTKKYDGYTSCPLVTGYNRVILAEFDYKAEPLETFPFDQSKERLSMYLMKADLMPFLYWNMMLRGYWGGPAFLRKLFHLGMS
UniProt Q5M775: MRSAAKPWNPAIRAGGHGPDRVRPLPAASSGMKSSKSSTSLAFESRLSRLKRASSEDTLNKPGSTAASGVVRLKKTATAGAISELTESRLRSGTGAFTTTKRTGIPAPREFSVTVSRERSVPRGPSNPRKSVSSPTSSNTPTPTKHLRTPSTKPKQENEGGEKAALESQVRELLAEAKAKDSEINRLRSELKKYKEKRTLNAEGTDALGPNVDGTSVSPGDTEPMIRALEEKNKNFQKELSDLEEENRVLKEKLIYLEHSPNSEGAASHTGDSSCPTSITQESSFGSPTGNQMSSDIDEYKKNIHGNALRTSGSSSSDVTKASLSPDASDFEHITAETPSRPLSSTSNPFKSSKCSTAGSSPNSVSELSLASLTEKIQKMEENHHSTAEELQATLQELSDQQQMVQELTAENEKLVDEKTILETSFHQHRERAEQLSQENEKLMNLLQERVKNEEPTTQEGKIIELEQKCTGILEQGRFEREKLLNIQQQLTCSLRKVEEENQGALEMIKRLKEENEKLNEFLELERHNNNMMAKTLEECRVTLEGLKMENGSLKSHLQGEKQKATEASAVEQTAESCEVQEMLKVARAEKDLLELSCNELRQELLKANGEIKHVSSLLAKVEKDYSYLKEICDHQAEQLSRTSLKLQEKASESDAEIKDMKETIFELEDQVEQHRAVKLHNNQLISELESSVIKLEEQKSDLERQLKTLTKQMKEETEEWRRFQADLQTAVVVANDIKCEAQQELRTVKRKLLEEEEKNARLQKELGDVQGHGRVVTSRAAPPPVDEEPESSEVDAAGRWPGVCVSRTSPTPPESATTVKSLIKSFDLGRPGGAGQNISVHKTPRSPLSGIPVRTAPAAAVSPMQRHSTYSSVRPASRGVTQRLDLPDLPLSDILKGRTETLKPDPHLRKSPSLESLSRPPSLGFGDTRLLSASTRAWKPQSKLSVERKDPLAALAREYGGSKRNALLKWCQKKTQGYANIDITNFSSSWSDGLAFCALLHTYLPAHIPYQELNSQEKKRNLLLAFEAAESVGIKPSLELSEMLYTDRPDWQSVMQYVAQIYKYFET
UniProt Q8NCJ5: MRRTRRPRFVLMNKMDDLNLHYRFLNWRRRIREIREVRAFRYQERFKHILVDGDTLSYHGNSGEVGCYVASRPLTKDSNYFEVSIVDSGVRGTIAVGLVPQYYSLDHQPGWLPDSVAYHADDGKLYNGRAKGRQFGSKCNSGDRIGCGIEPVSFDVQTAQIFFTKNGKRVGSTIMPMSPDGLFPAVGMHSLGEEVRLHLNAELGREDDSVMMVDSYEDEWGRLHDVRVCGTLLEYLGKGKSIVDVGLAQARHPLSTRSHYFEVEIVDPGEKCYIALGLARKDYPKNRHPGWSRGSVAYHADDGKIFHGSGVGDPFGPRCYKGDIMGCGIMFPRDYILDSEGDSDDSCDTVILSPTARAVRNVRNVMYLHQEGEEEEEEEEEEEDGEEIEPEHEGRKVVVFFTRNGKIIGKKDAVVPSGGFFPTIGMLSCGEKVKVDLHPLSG
UniProt Q92673: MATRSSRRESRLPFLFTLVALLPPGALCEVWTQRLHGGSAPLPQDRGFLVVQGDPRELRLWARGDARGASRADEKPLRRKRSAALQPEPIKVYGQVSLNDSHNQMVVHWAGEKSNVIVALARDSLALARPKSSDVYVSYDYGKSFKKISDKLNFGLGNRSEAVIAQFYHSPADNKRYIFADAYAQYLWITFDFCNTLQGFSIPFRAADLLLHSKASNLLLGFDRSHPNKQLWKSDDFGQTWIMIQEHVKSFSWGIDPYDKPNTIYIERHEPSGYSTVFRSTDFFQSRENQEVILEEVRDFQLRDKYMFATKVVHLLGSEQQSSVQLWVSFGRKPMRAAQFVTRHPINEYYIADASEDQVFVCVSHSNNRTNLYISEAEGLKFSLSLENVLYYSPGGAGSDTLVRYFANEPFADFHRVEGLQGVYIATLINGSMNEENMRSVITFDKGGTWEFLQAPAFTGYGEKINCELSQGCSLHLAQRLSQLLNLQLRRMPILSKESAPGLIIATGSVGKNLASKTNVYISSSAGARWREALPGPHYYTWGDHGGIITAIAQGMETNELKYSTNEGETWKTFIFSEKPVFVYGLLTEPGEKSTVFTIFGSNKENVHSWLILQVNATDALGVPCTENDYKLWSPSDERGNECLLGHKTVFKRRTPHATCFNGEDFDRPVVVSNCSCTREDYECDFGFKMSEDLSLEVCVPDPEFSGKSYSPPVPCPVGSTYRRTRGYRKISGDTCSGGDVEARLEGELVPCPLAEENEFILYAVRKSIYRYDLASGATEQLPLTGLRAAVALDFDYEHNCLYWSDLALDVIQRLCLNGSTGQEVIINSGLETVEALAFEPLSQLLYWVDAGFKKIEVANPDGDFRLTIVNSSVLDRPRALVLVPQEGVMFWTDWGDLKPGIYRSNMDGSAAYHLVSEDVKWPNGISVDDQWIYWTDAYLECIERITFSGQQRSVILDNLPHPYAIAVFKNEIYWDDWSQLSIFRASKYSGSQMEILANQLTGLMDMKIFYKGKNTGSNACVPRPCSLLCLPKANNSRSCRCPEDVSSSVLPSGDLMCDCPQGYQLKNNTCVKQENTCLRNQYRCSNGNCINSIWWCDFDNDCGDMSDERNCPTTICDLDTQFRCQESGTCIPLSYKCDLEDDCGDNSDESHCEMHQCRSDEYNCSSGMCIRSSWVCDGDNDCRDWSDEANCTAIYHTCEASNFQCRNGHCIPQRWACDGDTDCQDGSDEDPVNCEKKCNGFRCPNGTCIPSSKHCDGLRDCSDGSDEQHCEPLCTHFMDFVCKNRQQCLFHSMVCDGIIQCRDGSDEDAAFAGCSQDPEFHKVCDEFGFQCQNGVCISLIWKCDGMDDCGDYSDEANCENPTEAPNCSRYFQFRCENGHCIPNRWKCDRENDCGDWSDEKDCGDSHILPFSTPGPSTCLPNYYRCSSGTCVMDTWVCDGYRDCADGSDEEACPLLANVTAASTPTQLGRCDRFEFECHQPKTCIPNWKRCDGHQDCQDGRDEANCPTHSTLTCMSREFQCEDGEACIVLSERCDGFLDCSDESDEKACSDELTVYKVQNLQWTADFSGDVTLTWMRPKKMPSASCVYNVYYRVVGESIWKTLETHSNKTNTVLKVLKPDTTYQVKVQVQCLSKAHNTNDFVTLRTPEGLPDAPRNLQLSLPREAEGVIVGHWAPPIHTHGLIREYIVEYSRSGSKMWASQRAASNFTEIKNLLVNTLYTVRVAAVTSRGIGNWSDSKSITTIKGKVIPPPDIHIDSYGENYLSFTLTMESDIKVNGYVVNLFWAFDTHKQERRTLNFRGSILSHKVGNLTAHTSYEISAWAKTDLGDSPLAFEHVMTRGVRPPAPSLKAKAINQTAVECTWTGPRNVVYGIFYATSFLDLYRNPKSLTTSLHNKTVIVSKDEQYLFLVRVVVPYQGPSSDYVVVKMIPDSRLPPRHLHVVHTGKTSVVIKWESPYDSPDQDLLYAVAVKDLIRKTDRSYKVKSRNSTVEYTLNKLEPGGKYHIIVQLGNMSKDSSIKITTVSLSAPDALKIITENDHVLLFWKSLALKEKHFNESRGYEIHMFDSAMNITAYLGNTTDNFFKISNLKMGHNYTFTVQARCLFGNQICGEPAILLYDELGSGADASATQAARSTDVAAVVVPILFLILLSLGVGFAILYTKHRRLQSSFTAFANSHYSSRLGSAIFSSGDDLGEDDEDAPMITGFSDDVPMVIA

Compound: CC1Cc2ccccc2N1C(=O)C1CCCN(C1)C(=O)CCl (mixture of isomers) [TRIM25 ligand 11 (diastereomer mixture)]
Assay: probe-labelled cysteine peptide fold change vs DMSO (competition) (log2 fold change); higher = less target engagement (more negative = stronger competition)
Conditions: THP-1, incubation time: 4 h
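Note: competitive chemoproteomic profiling in live THP-1 cells with an iodoacetamide desthiobiotin (IA-DTB) probe, comparing probe-labelled peptide intensities in compound-treated cells against DMSO-treated controls.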

Target	probe-labelled cysteine peptide fold change (10 µM)	probe-labelled cysteine peptide fold change (50 µM)
SRM_P19623_209_EDGVLCCQGECQWLHLDLIK (UniProt P19623)	0.351	0.294
SNX16_P57768_230_AFCETLEETNYR (UniProt P57768)	-0.0273	-0.197
SP3_Q02447_686_KFVCPECSK (UniProt Q02447)	0.0384	0.0565
SPATA5_Q8NB90_291_CNFESAR (UniProt Q8NB90)	0.0109	-0.118
SOGA1_O94964_984_DCNHLGALACQDPPGR (UniProt O94964)	0.113	-0.189
SNRPD3_P62318_41_LIEAEDNMNCQMSNITVTYR (UniProt P62318)	0.0162	0.0414
SRBD1_Q8N5C6_912_SIVCLEDLQIGTVLTGK (UniProt Q8N5C6)	0.0769	-0.14
SP1_P08047_691_FACPECPK (UniProt P08047)	0.0671	0.226
SPTAN1_Q13813_1930_DRVNDVCTNGQDLIK (UniProt Q13813)	0.00721	0.386
SNUPN_O95149_199_GHPFYDCQTDFR (UniProt O95149)	0.47	0.00215
SNX3_O60493_140_CLHMFLQDEIIDK (UniProt O60493)	-0.0941	-0.138
SQOR_Q9Y6N5_337_YPNVFGIGDCTNLPTSK (UniProt Q9Y6N5)	-0.0695	-0.0803
SNX9_Q9Y5X1_502_GFLGCFPDIIGTHK (UniProt Q9Y5X1)	0.0786	0.0871
SPAG5_Q96R06_589_DAAEIVLEAFCAHASQR (UniProt Q96R06)	0.166	0.0881
SNX18_Q96RF0_30_EHEVLSLCSEQDIEGWLEGVNSR (UniProt Q96RF0)	0.0682	-0.146
SPATA5_Q8NB90_672_GVLLYGPPGCSK (UniProt Q8NB90)	0.121	0.0949
SPATS2L_Q9NUQ6_351_AQIMLCGEITHPK (UniProt Q9NUQ6)	0.164	-0.257

Complete entries, quoted from the list:
SNX16_P57768_230_AFCETLEETNYR (UniProt P57768) in the list: probe-labelled cysteine peptide fold change (10 µM) = -0.0273; probe-labelled cysteine peptide fold change (50 µM) = -0.197
SPTAN1_Q13813_1930_DRVNDVCTNGQDLIK (UniProt Q13813) in the list: probe-labelled cysteine peptide fold change (10 µM) = 0.00721; probe-labelled cysteine peptide fold change (50 µM) = 0.386

Next entries

Target	probe-labelled cysteine peptide fold change (10 µM)	probe-labelled cysteine peptide fold change (50 µM)
SP3_Q02447_623+628_KQHICHIPGCGK (UniProt Q02447)	-0.0261	0.063
SPECC1_Q5M775_493_LLNIQQQLTCSLR (UniProt Q5M775)	-0.0352	-0.117
SRI_P30626_162_ITFDDYIACCVK (UniProt P30626)	-0.118	-0.151
SORD_Q00796_140_HNAAFCYK (UniProt Q00796)	-0.0352	0.0317
SRD5A3_Q9H8P0_238_AGVVIHCNHR (UniProt Q9H8P0)	0.00183	-0.036
SPECC1_Q5M775_633_EICDHQAEQLSR (UniProt Q5M775)	-0.00943	-0.0553
SPTLC1_O15269_419_LLQEIVDQCMNR (UniProt O15269)	-0.0677	-0.0878
SPRYD3_Q8NCJ5_272_CYIALGLAR (UniProt Q8NCJ5)	-0.00509	0.142
SNRPB_P14678_45_HMNLILCDCDEFRK (UniProt P14678)	-0.111	-0.0458
SOGA1_O94964_499_KADAVLGCSVK (UniProt O94964)	-0.102	-0.068
SQOR_Q9Y6N5_337_RYPNVFGIGDCTNLPTSK (UniProt Q9Y6N5)	0.00602	-0.00437
SPART_Q8N0X7_562_CIVNNVSAETVQTVR (UniProt Q8N0X7)	-0.0377	0.00854
SORL1_Q92673_752_LEGELVPCPLAEENEFILYAVR (UniProt Q92673)	0.297	-0.028
SORL1_Q92673_1376_CENGHCIPNR (UniProt Q92673)	-0.0127	0.156
SP140_Q13342_686_SQNNSSVDPCMR (UniProt Q13342)	-0.0579	-0.227
SRM_P19623_25_ETCSLWPGQALSLQVEQLLHHR (UniProt P19623)	0.0438	0.0281
SP1_P08047_633_QHICHIQGCGK (UniProt P08047)	0.0312	0.127
